# Assay results taken from the supplement of paper PMC8728848.
# The list shows a part of the results.
# B1: Protectin (Homo sapiens), P13987 (protein)
# chain: MGIQGGSVLFGLLLVLAVFCHSGHSLQCYNCPNPTADCKTAVNCSSDFDACLITKAGLQVYNKCWKFEHCNFNDVTTRLRENELTYYCCKKDLCNFNEQLENGGTSLSEKTVLLLVTPFLAAAWSLHP
# Legend:
# Test in all cases: glycan array binding signal (z-score within array); higher = stronger binding
# Settings in all cases: glycan notation: IUPAC condensed, linker removed
# [1] = biological target: Gal(a1-4)Gal(b1-4)GlcNAc(b1-2)Man(a1-3)[Gal(a1-4)Gal(b1-4)GlcNAc(b1-2)Man(a1-6)]Man(b1-4)GlcNAc(b1-4)GlcNAc
# In short: (§1)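 Glycan array binding is given as a within-array Z-score, which can be read as non-binding when negative. The arrays, 3228 of them, came from the Consortium for Functional Glycomics database and were retained only where the protein sequence was available. Z-scores were averaged across arrays of the same protein sequence at different concentrations or buffers and across linkers.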
# [2] = biological target: Gal(a1-4)Gal(b1-4)GlcNAc(b1-3)Gal(b1-4)Glc
# In short: as §1
# Gal(a1-4)GlcNAc = biological target: Gal(a1-4)GlcNAc
# In short: as §1
# Gal(a1-6)Glc = biological target: Gal(a1-6)Glc
# In short: as §1
# Gal(b1-2)Gal = biological target: Gal(b1-2)Gal
# In short: as §1
# Gal(b1-3)Gal = biological target: Gal(b1-3)Gal
# In short: as §1
# Gal(b1-3)Gal(b1-4)GlcNAc = biological target: Gal(b1-3)Gal(b1-4)GlcNAc
# In short: as §1
# [3] = biological target: Gal(b1-3)Gal(b1-4)GlcNAc(b1-2)Man(a1-3)[Gal(b1-3)Gal(b1-4)GlcNAc(b1-2)Man(a1-6)]Man(b1-4)GlcNAc(b1-4)GlcNAc
# In short: as §1
# Gal(b1-3)GalNAc = biological target: Gal(b1-3)GalNAc
# In short: as §1
# [4] = biological target: Gal(b1-3)GalNAc(a1-3)[Fuc(a1-2)]Gal(b1-4)Glc
# In short: as §1
# [5] = biological target: Gal(b1-3)GalNAc(a1-3)[Fuc(a1-2)]Gal(b1-4)GlcNAc
# In short: as §1
# [6] = biological target: Gal(b1-3)GalNAc(b1-3)Gal(a1-4)Gal(b1-4)Glc
# In short: as §1
# [7] = biological target: Gal(b1-3)GalNAc(b1-4)Gal(b1-4)Glc
# In short: as §1
# [8] = biological target: Gal(b1-3)GalNAc(b1-4)[Neu5Ac(a2-3)]Gal(b1-4)Glc
# In short: as §1
# Gal(b1-3)GlcNAc = biological target: Gal(b1-3)GlcNAc
# In short: as §1
# [9] = biological target: Gal(b1-3)GlcNAc(a1-6)Gal(b1-4)GlcNAc
# In short: as §1
# [10] = biological target: Gal(b1-3)GlcNAc(b1-2)Man(a1-3)[Gal(b1-3)GlcNAc(b1-2)Man(a1-6)]Man(b1-4)GlcNAc(b1-4)GlcNAc
# In short: as §1
# [11] = biological target: Gal(b1-3)GlcNAc(b1-2)Man(a1-3)[Gal(b1-3)GlcNAc(b1-2)Man(a1-6)]Man(b1-4)GlcNAc(b1-4)[Fuc(a1-6)]GlcNAc
# In short: as §1
# [12] = biological target: Gal(b1-3)GlcNAc(b1-2)[Gal(b1-3)GlcNAc(b1-6)]Man(a1-6)[Gal(b1-3)GlcNAc(b1-2)Man(a1-3)]Man(b1-4)GlcNAc(b1-4)GlcNAc
# In short: as §1
# [13] = biological target: Gal(b1-3)GlcNAc(b1-3)Gal(b1-3)GlcNAc
# In short: as §1
# [14] = biological target: Gal(b1-3)GlcNAc(b1-3)Gal(b1-4)Glc
# In short: as §1
# [15] = biological target: Gal(b1-3)GlcNAc(b1-3)Gal(b1-4)GlcNAc
# In short: as §1
# [16] = biological target: Gal(b1-3)GlcNAc(b1-3)Gal(b1-4)GlcNAc(b1-6)[Gal(b1-3)GlcNAc(b1-3)]Gal(b1-4)Glc
# In short: as §1
# [17] = biological target: Gal(b1-3)GlcNAc(b1-3)Gal(b1-4)[Fuc(a1-3)]GlcNAc(b1-6)[Gal(b1-3)GlcNAc(b1-3)]Gal(b1-4)Glc
# In short: as §1
# [18] = biological target: Gal(b1-3)GlcNAc(b1-3)GalNAc
# In short: as §1
# [19] = biological target: Gal(b1-3)GlcNAc(b1-6)Gal(b1-4)GlcNAc
# In short: as §1
# [20] = biological target: Gal(b1-3)[Fuc(a1-4)]GlcNAc
# In short: as §1
# [21] = biological target: Gal(b1-3)[Fuc(a1-4)]GlcNAc(b1-2)Man(a1-3)[Gal(b1-3)[Fuc(a1-4)]GlcNAc(b1-2)Man(a1-6)]Man(b1-4)GlcNAc(b1-4)GlcNAc
# In short: as §1
# [22] = biological target: Gal(b1-3)[Fuc(a1-4)]GlcNAc(b1-2)Man(a1-3)[Gal(b1-3)[Fuc(a1-4)]GlcNAc(b1-2)Man(a1-6)]Man(b1-4)GlcNAc(b1-4)[Fuc(a1-6)]GlcNAc
# In short: as §1
# [23] = biological target: Gal(b1-3)[Fuc(a1-4)]GlcNAc(b1-3)Gal(b1-3)[Fuc(a1-4)]GlcNAc
# In short: as §1
# [24] = biological target: Gal(b1-3)[Fuc(a1-4)]GlcNAc(b1-3)Gal(b1-4)GlcNAc
# In short: as §1
# [25] = biological target: Gal(b1-3)[Fuc(a1-4)]GlcNAc(b1-3)Gal(b1-4)[Fuc(a1-3)]GlcNAc
# In short: as §1
# [26] = biological target: Gal(b1-3)[GlcNAc(b1-6)]GalNAc
# In short: as §1
# [27] = biological target: Gal(b1-3)[Neu5Ac(a2-6)]GalNAc
# In short: as §1
# [28] = biological target: Gal(b1-3)[Neu5Ac(a2-6)]GlcNAc(b1-6)Gal(b1-4)Glc
# In short: as §1
# [29] = biological target: Gal(b1-3)[Neu5Ac(b2-6)]GalNAc
# In short: as §1
# Gal(b1-4)Gal = biological target: Gal(b1-4)Gal
# In short: as §1
# [30] = biological target: Gal(b1-4)GalNAc(a1-3)[Fuc(a1-2)]Gal(b1-4)GlcNAc
# In short: as §1
# [31] = biological target: Gal(b1-4)GalNAc(b1-3)[Fuc(a1-2)]Gal(b1-4)GlcNAc
# In short: as §1
# Gal(b1-4)Glc = biological target: Gal(b1-4)Glc
# In short: as §1
# Gal(b1-4)Glc6S = biological target: Gal(b1-4)Glc6S
# In short: as §1
# Gal(b1-4)GlcNAc = biological target: Gal(b1-4)GlcNAc
# In short: as §1
# [32] = biological target: Gal(b1-4)GlcNAc(a1-6)Gal(b1-4)GlcNAc
# In short: as §1
# Gal(b1-4)GlcNAc(b1-2)Man = biological target: Gal(b1-4)GlcNAc(b1-2)Man
# In short: as §1
# [33] = biological target: Gal(b1-4)GlcNAc(b1-2)Man(a1-3)Man(b1-4)GlcNAc(b1-4)GlcNAc
# In short: as §1
binder,measurement,setting,value
B1,glycan array binding signal (z-score),[1],2.18
same,glycan array binding signal (z-score),[2],-0.279
same,glycan array binding signal (z-score),Gal(a1-4)GlcNAc,0.405
same,glycan array binding signal (z-score),Gal(a1-6)Glc,0.263
same,glycan array binding signal (z-score),Gal(b1-2)Gal,0.173
same,glycan array binding signal (z-score),Gal(b1-3)Gal,0.497
same,glycan array binding signal (z-score),Gal(b1-3)Gal(b1-4)GlcNAc,1.03
same,glycan array binding signal (z-score),[3],-1.35
same,glycan array binding signal (z-score),Gal(b1-3)GalNAc,0.584
same,glycan array binding signal (z-score),[4],-0.495
same,glycan array binding signal (z-score),[5],-0.989
same,glycan array binding signal (z-score),[6],0.433
same,glycan array binding signal (z-score),[7],-0.023
same,glycan array binding signal (z-score),[8],-0.31
same,glycan array binding signal (z-score),Gal(b1-3)GlcNAc,0.046
same,glycan array binding signal (z-score),[9],0.331
same,glycan array binding signal (z-score),[10],1.11
same,glycan array binding signal (z-score),[11],0.419
same,glycan array binding signal (z-score),[12],2.46
same,glycan array binding signal (z-score),[13],0.86
same,glycan array binding signal (z-score),[14],2.77
same,glycan array binding signal (z-score),[15],0.42
same,glycan array binding signal (z-score),[16],-0.439
same,glycan array binding signal (z-score),[17],0.12
same,glycan array binding signal (z-score),[18],1.18
same,glycan array binding signal (z-score),[19],-1.29
same,glycan array binding signal (z-score),[20],0.523
same,glycan array binding signal (z-score),[21],0.896
same,glycan array binding signal (z-score),[22],-0.076
same,glycan array binding signal (z-score),[23],-0.059
same,glycan array binding signal (z-score),[24],-0.601
same,glycan array binding signal (z-score),[25],-0.741
same,glycan array binding signal (z-score),[26],0.335
same,glycan array binding signal (z-score),[27],0.383
same,glycan array binding signal (z-score),[28],0.839
same,glycan array binding signal (z-score),[29],-1.16
same,glycan array binding signal (z-score),Gal(b1-4)Gal,0.898
same,glycan array binding signal (z-score),[30],1.53
same,glycan array binding signal (z-score),[31],0.272
same,glycan array binding signal (z-score),Gal(b1-4)Glc,-0.112
same,glycan array binding signal (z-score),Gal(b1-4)Glc6S,0.209
same,glycan array binding signal (z-score),Gal(b1-4)GlcNAc,0.172
same,glycan array binding signal (z-score),[32],-1.13
same,glycan array binding signal (z-score),Gal(b1-4)GlcNAc(b1-2)Man,0.267
same,glycan array binding signal (z-score),[33],-0.656

# Rewritten bar-delimited: entries from further up
binder | measurement | setting | value
B1 | glycan array binding signal (z-score) | [20] | 0.523
same | glycan array binding signal (z-score) | [21] | 0.896
same | glycan array binding signal (z-score) | [22] | -0.076
same | glycan array binding signal (z-score) | [23] | -0.059
same | glycan array binding signal (z-score) | [24] | -0.601
same | glycan array binding signal (z-score) | [25] | -0.741
same | glycan array binding signal (z-score) | [26] | 0.335
same | glycan array binding signal (z-score) | [27] | 0.383
same | glycan array binding signal (z-score) | [28] | 0.839
same | glycan array binding signal (z-score) | [29] | -1.16
same | glycan array binding signal (z-score) | Gal(b1-4)Gal | 0.898
same | glycan array binding signal (z-score) | [30] | 1.53
